From doi:10.1101/2025.07.12.664526 (bioRxiv, 2025)
These are yes or no findings as the source states them, for the method shown. Binding seen in cells or lysates may run through a third protein. Binding can be weak; no strength is given. Tags and fused reporters may be left off the sequences shown.

Target: T1, WalR wild type fused to SmBIT or LgBIT (split luciferase) (S. aureus ATCC29213) (UniProt Q7A8E1)
T1 sequence: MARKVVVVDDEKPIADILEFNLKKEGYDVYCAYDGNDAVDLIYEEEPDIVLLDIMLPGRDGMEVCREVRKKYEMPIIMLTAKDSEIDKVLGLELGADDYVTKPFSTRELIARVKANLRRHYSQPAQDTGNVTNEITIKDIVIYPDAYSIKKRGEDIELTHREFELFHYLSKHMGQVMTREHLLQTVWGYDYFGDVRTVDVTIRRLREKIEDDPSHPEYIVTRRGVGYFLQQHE
Assay: split reporter

In the case of “PknB (cytoplasmic domain only) fused to LgBIT (split luciferase) (from UniProt A0A0H2XGG5) (domain or fragment)”, the binding is reported as “binds”.
